## Drug screen on melanoma cell lines: apoptosis marker

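Human melanoma cells were exposed to a pair of drugs for 72 h in 1,536-well plates and read by automated microscopy after fixing and staining. The read-out is the fraction of cleaved-PARP-positive nuclei, in % of that fraction in the DMSO control; 200 means twice the control level of this apoptosis marker. Every drug was used at one fixed concentration, the higher of two screened. The file gives one value for each pair and line, without errors, so small differences may be noise. The marker varies much from line to line, for technical or biological reasons.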
This is part of the screen, not chosen by result.

Every entry is a combination with AS-252424 at 5 µM: O=C1NC(=O)/C(=C/c2ccc(-c3ccc(F)cc3O)o2)S1

Drugs:
U73122: COc1ccc2c(c1)CCC1C2CCC2(C)C(NCCCCCCN3C(=O)C=CC3=O)CCC12 (stereo not given) at 2 µM
CHIR-265: Cn1c(Nc2ccc(C(F)(F)F)cc2)nc2cc(Oc3ccnc(-c4ncc(C(F)(F)F)[nH]4)c3)ccc21 at 0.4 µM
PD173074: CCN(CC)CCCCNc1ncc2cc(-c3cc(OC)cc(OC)c3)c(NC(=O)NC(C)(C)C)nc2n1 at 0.5 µM
L-779450: Oc1cc(-c2nc(-c3ccccc3)[nH]c2-c2ccncc2)ccc1Cl at 1 µM
bexarotene: C=C(c1ccc(C(=O)O)cc1)c1cc2c(cc1C)C(C)(C)CCC2(C)C at 10 µM
SU6656: CN(C)S(=O)(=O)c1ccc2c(c1)/C(=C/c1cc3c([nH]1)CCCC3)C(=O)N2 at 2 µM
OSU-03012: NCC(=O)Nc1ccc(-n2nc(C(F)(F)F)cc2-c2ccc3c(ccc4ccccc43)c2)cc1 at 5 µM
enzastaurin: Cn1cc(C2=C(c3cn(C4CCN(Cc5ccccn5)CC4)c4ccccc34)C(=O)NC2=O)c2ccccc21 at 4 µM
NVP-TAE684: COc1cc(N2CCC(N3CCN(C)CC3)CC2)ccc1Nc1ncc(Cl)c(Nc2ccccc2S(=O)(=O)C(C)C)n1 at 0.4 µM
STA-4783: CN(NC(=O)CC(=O)NN(C)C(=S)c1ccccc1)C(=S)c1ccccc1 at 0.03 µM
ENMD-2076: Cc1cc(Nc2cc(N3CCN(C)CC3)nc(/C=C/c3ccccc3)n2)n[nH]1 at 0.2 µM
PF-562271: CN(c1ncccc1CNc1nc(Nc2ccc3c(c2)CC(=O)N3)ncc1C(F)(F)F)S(C)(=O)=O at 0.4 µM
selumetinib: Cn1cnc2c(F)c(Nc3ccc(Br)cc3Cl)c(C(=O)NOCCO)cc21 at 0.075 µM
NVP-BEZ235: Cn1c(=O)n(-c2ccc(C(C)(C)C#N)cc2)c2c3cc(-c4cnc5ccccc5c4)ccc3ncc21 at 0.02 µM
MK-1775: C=CCn1c(=O)c2cnc(Nc3ccc(N4CCN(C)CC4)cc3)nc2n1-c1cccc(C(C)(C)O)n1 at 0.1 µM
tipifarnib: Cn1cncc1[C@@](N)(c1ccc(Cl)cc1)c1ccc2c(c1)c(-c1cccc(Cl)c1)cc(=O)n2C at 0.05 µM
ABT-263: CC1(C)CCC(c2ccc(Cl)cc2)=C(CN2CCN(c3ccc(C(=O)NS(=O)(=O)c4ccc(N[C@H](CCN5CCOCC5)CSc5ccccc5)c(S(=O)(=O)C(F)(F)F)c4)cc3)CC2)C1 at 2 µM
YM155: COCC[n+]1c2c(n(Cc3cnccn3)c1C)C(=O)c1ccccc1C2=O at 0.002 µM
decitabine: Nc1ncn([C@H]2C[C@H](O)[C@@H](CO)O2)c(=O)n1 at 0.5 µM

Partner | MZ2-MEL
NVP-TAE684 | 166
tipifarnib | 91.4
PF-562271 | 215
STA-4783 | 67.9
ABT-263 | 577
selumetinib | 630
enzastaurin | 113
PD173074 | 1070
CHIR-265 | 173
U73122 | 131
MK-1775 | 32.3
OSU-03012 | 79.0
SU6656 | 156
decitabine | 138
ENMD-2076 | 156
L-779450 | 66.6
YM155 | 149
bexarotene | 158
NVP-BEZ235 | 78.0

Values as published with doi:10.1371/journal.pone.0140310, rounded.